Values quoted from earlier work as cited in US5565200A, “Pharmaceutical preparations derived from korean mistletoe” (priority 1995, dated 1996).
For at least one compound, name, drawing or mass did not settle the structure.

System: AIDS
Conditions: cited from earlier work

## Cc1cn([C@H]2C[C@H](N=[N+]=[N-])[C@@H](CO)O2)c(=O)[nH]c1=O [AZT, azidothymidine]
  life of AIDS patients: prolong the life of AIDS patients for at least one year
